Assay results taken from US20220162310A1.
No constants are given. Whether binding was seen depends on the method and setting. Some entries that bind do so weakly or less than the wild type. Blank lines part the entries; values can stand above or below the binder they belong to.

Columns and labels:
[1] = molecular target: human TIGIT-His antigen (human) (UniProt Q495A1); assay: Octet (BLI), human TIGIT-HIS on penta-His sensor
[2] = molecular target: T1, TIGIT on the TIGIT-overexpressing Jurkat cell line (Jurkat-TIGIT) (Homo sapiens (Human)) (UniProt Q495A1); assay: flow cytometry (MFI) on Jurkat-TIGIT cells
T1 sequence: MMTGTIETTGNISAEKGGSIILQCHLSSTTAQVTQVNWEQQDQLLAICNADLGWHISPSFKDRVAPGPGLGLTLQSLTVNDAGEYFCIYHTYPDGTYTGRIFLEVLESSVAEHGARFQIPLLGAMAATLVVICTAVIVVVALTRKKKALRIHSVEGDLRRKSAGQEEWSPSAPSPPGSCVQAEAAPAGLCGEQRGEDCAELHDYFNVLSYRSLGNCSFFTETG

[3] = molecular target: T2, human TIGIT on transfected HEK293 cells (human) (UniProt Q495A1); assay: flow cytometry on HEK293 cells transfected with human TIGIT
T2 sequence: T1 sequence

[4] = molecular target: T2, human TIGIT on transfected HEK293 cells (human); assay: flow cytometry on HEK293 cells transfected with human TIGIT (GFP-positive cells), antibody 1 ug/5x10^5 cells, PE goat anti-human Fab'2

binding [1]: binds | binding [2]: binds | binding [3]: binds
B1: 1E8 (IgG-type anti-TIGIT antibody) (antibody, V domains shown)
VH: QVQLVQSGTEVKKPGASVKVSCKASGYTFSSYAITWVRQAPGQGLEWMGWISAYNGNTNYAQKLQGRVTMTTDTSTSTAYMELRSLRSDDTAVYYCARVDFWSGYNYFDYWGQGTLVTVSS
VL: DIQMTQSPSSLSASVGDRVTITCRASQGISNYLAWYQQKPGKVPKVLIYAASTLQSGVPSRFSGSGSGTDFTLTISSLQPEDVATYYCQKSNSAPLTFGGGTKVEIKR

binding [4]: binds | binding [2]: binds
B2: 1F10 (IgG-type anti-TIGIT antibody) (antibody, V domains shown)
VH: EVQLVESGGGLVKPGGSLRISCAASGFTFSNYNMIWVRQAPGKGLEWVSSISSSASYIYYADSVKGRFTISRDNAKNSLYLQMNSLRAEDTAVYYCARDEGSRDSWNNGPYYYSGMDVWGQGTTVTVSS
VL: AIQMTQSPSSLSASVGDRVTITCRASQSISRYLNWYQHKPGKAPKLLIYGASSLQSGVPSRFRGSGSGTDFTLTISSLQPEDFATYYCQQSYTTPGAFTFGGGTKVEIKR
